PubChem BioAssay AID330 (DTP/NCI, 2004)
The list shows only some results of the screen, not a fair sample: it is rich in T/C values a quarter to a half above the control, in often repeated tests (any T/C) and in doses without a T/C. Further doses and runs are listed elsewhere. T/C: endpoint of the treated group in % of that of the vehicle group. Some doses have a count of surviving animals in place of a T/C: the source files T/C as zero there, which appears to mark a toxic dose or a test without result, not a measured value. Some doses without a T/C left all or most animals alive at the check, yet need not have been tolerated: the source hardly ever lists a survival T/C far under the control, and the zero likely stands for such cases as well. Survivors were counted at the toxicity check, usually on the fifth day, unless a day is given; later deaths do not show. Schedule codes are those of the source, taken here to give the interval after Q, in days (D) or hours (H), and the number of doses after X. Some schedules carry Z or #; the key to these is not given. For survival time, the PubChem record calls one and a half times the control and up active, and a quarter to a half above the control has no call in these data; cut-offs in other NCI protocols can differ. Brackets with × say how often a value occurs here. Some doses were run more than once; their values stand side by side, smallest first.

Test system: P388 leukemia ip, CD2F1 mice, survival T/C
Assay: NCI In Vivo Anticancer Drug Screen. Data for tumor model P388 Leukemia (intraperitoneal) in CD2F1 (CDF1) mice
Conditions: T/C endpoint: median survival time, higher T/C = longer survival
[1] = dose: 200.0 mg/kg/injection, schedule: Q01DX005 (ip), vehicle: saline with Tween-80
[2] = dose: 200.0 mg/kg/injection, schedule: Q01DX009 (ip), vehicle: saline with Tween-80
[3] = dose: 100.0 mg/kg/injection, schedule: Q04DX003 (ip), vehicle: saline with Tween-80
[4] = dose: 200.0 mg/kg/injection, schedule: Q04DX003 (ip), vehicle: saline with Tween-80
[5] = dose: 400.0 mg/kg/injection, schedule: Q04DX003 (ip), vehicle: saline with Tween-80

Compound: O=C1C2C3C=CC(C2C(=O)N1Cc1ccccc1)C1C2C(=O)N(Cc4ccccc4)C(=O)C2C31 (configuration not stated)
- survivor count (dose: 50.0 mg/kg/injection, schedule: Q01DX001 (ip), vehicle: saline with Tween-80): 6 of 6
- survivor count (dose: 100.0 mg/kg/injection, schedule: Q01DX001 (ip), vehicle: saline with Tween-80): 6 of 6
- survivor count (dose: 200.0 mg/kg/injection, schedule: Q01DX001 (ip), vehicle: saline with Tween-80): 6 of 6
- survivor count (dose: 400.0 mg/kg/injection, schedule: Q01DX001 (ip), vehicle: saline with Tween-80): 6 of 6

Compound: CC1(C)[C@@H]2CC[C@]3(C)[C@H]4CC[C@]5(C)[C@@H](O)CC[C@H]5[C@@H]4CC[C@]3(O2)[C@@H]1O
- survivor count [1]: 6 of 6

Compound: CCOC(=O)N=C=S
- survivor count [2]: 3 of 6

Compound: C/C=C1\CNC2Cc3c([nH]c4ccccc34)C(c3c(OC)ccc4c5c([nH]c34)C3(C(=O)OC)CC4CC(CC)C3N(CC5)C4)CC1C2C(=O)OC (configuration not stated)
- survivor count (dose: 6.25 mg/kg/injection, schedule: Q01DX009 (ip), vehicle: saline with Tween-80): 4 of 4

Compound: Cc1c2oc3c(C)ccc(C(=O)NC4C(=O)NC(C(C)C)C(=O)N5CCCC5C(=O)N(C)CC(=O)N(C)C(C(C)C)C(=O)OC4C)c3nc-2c(C(=O)NC2C(=O)NC(C(C)C)C(=O)N3CCCC3C(=O)N(C)CC(=O)N(C)C(C(C)C)C(=O)OC2C)c(N)c1=O (configuration not stated)
- T/C (dose: 0.05 mg/kg/injection, schedule: Q01DX009 (ip), vehicle: distilled water + Tween-80): 145 % of control
- T/C (dose: 0.05 mg/kg/injection, schedule: Q01DX009 (ip), vehicle: water): 141 % of control
- T/C (dose: 0.1 mg/kg/injection, schedule: Q01DX009 (ip), vehicle: water): 141 % of control
- T/C (dose: 0.44 mg/kg/injection, schedule: Q01DX009 (ip), vehicle: water, evaluated on day 5): 198 and 252 % of control
- T/C (dose: 0.44 mg/kg/injection, schedule: Q01DX009 (ip), vehicle: water, evaluated on day 97): 198 and 252 % of control
- T/C (dose: 0.64 mg/kg/injection, schedule: Q01DX009 (ip), vehicle: water, evaluated on day 5): 234 % of control (2×)
- T/C (dose: 0.64 mg/kg/injection, schedule: Q01DX009 (ip), vehicle: water, evaluated on day 97): 234 % of control (2×)
- T/C (dose: 0.66 mg/kg/injection, schedule: Q01DX009 (ip), vehicle: water, evaluated on day 5): 270 and 360 % of control
- T/C (dose: 0.66 mg/kg/injection, schedule: Q01DX009 (ip), vehicle: water, evaluated on day 97): 270 and 360 % of control
- survivor count (dose: 0.8 mg/kg/injection, schedule: Q01DX009 (ip), vehicle: distilled water + Tween-80): 5 of 6
- survivor count (dose: 0.8 mg/kg/injection, schedule: Q01DX009 (ip), vehicle: water): 6 of 6
- T/C (dose: 0.84 mg/kg/injection, schedule: Q01DX009 (ip), vehicle: water, evaluated on day 5): 252 and 270 % of control
- T/C (dose: 0.84 mg/kg/injection, schedule: Q01DX009 (ip), vehicle: water, evaluated on day 97): 252 and 270 % of control
- T/C (dose: 0.96 mg/kg/injection, schedule: Q01DX009 (ip), vehicle: water, evaluated on day 5): 243 and 288 % of control
- T/C (dose: 0.96 mg/kg/injection, schedule: Q01DX009 (ip), vehicle: water, evaluated on day 97): 243 and 288 % of control
- T/C (dose: 1.26 mg/kg/injection, schedule: Q01DX009 (ip), vehicle: water, evaluated on day 5): 243 and 349 % of control
- T/C (dose: 1.26 mg/kg/injection, schedule: Q01DX009 (ip), vehicle: water, evaluated on day 97): 243 and 349 % of control
- survivor count (dose: 1.6 mg/kg/injection, schedule: Q01DX009 (ip), vehicle: distilled water + Tween-80): 2 of 6
- survivor count (dose: 1.6 mg/kg/injection, schedule: Q01DX009 (ip), vehicle: water): 6 of 6

Compound: C1CCC2OCN3CCCCC3CC2C1 (configuration not stated)
- survivor count (dose: 200.0 mg/kg/injection, schedule: Q01DX005 (ip), vehicle: saline): 3 of 6

Compound: CCOC(=O)/C(Cl)=N/Nc1ccccc1
- survivor count [1]: 4 of 6

Compound: NS(=O)(=O)c1ccc(Nc2c3ccccc3nc3ccccc23)cc1
- survivor count (dose: 50.0 mg/kg/injection, schedule: Q04DX003 (ip), vehicle: Klucel (hydroxypropylcellulose) (HPC)): 6 of 6
- survivor count (dose: 59.0 mg/kg/injection, schedule: Q04DX003 (ip), vehicle: Klucel (hydroxypropylcellulose) (HPC)): 6 of 6
- survivor count (dose: 200.0 mg/kg/injection, schedule: Q04DX003 (ip), vehicle: Klucel (hydroxypropylcellulose) (HPC)): 6 of 6

Compound: O=C(c1ccccc1)c1ccc[n+](Cc2c(Cl)cccc2Cl)c1
- survivor count (dose: 100.0 mg/kg/injection, schedule: Q01DX009 (ip), vehicle: saline): 6 of 6
- survivor count (dose: 200.0 mg/kg/injection, schedule: Q01DX009 (ip), vehicle: saline): 0 of 6

Compound: COC(=O)c1nc(N)nc(C(=O)OC)c1C(=O)c1ccncc1
- survivor count (dose: 240.0 mg/kg/injection, schedule: Q01DX005 (ip), vehicle: Klucel (hydroxypropylcellulose) (HPC)): 0 of 6

Compound: COc1ccc2c(c1)C(Cc1ccc(Oc3cc(CC4c5cc(OC)ccc5CC[N+]4(C)C)ccc3OC)cc1)[N+](C)(C)CC2 (configuration not stated)
- survivor count (dose: 6.25 mg/kg/injection, schedule: Q04DX003 (ip), vehicle: saline with Tween-80): 0 of 6
- survivor count (dose: 6.25 mg/kg/injection, schedule: Q04DX003 (ip), vehicle: water): 3 of 6
- survivor count (dose: 12.5 mg/kg/injection, schedule: Q04DX003 (ip), vehicle: saline with Tween-80): 0 of 6
- survivor count (dose: 25.0 mg/kg/injection, schedule: Q04DX003 (ip), vehicle: saline with Tween-80): 0 of 6
- survivor count (dose: 50.0 mg/kg/injection, schedule: Q04DX003 (ip), vehicle: saline with Tween-80): 0 of 6
- survivor count [3]: 0 of 6
- survivor count [4]: 0 of 6
- survivor count [5]: 0 of 6

Compound: CCOC(=O)Nc1ccc2nc(N3CCCCC3)sc2c1
- survivor count [2]: 6 of 6

Compound: COP(=S)(OC)SCSc1ccc(Cl)cc1
- survivor count (dose: 50.0 mg/kg/injection, schedule: Q01DX009 (ip), vehicle: saline with Tween-80): 1 of 6
- survivor count (dose: 100.0 mg/kg/injection, schedule: Q01DX009 (ip), vehicle: saline with Tween-80): 0 of 6
- survivor count [2]: 0 of 6

Compound: CC(C)(C)OOC(=O)c1ccccc1O
- survivor count (dose: 400.0 mg/kg/injection, schedule: Q04DX003 (ip), vehicle: saline sonified): 3 of 6

Compound: O=C(O)C1=CO[C@@H](OC2OC(CO)C(O)C(O)C2O)[C@H]2[C@@H]1C=C[C@]2(O)CO (some centres not stated)
- survivor count (dose: 18.75 mg/kg/injection, schedule: Q01DX009 (ip), vehicle: Klucel (hydroxypropylcellulose) (HPC)): 5 of 6
- survivor count (dose: 37.5 mg/kg/injection, schedule: Q01DX009 (ip), vehicle: Klucel (hydroxypropylcellulose) (HPC)): 6 of 6
- survivor count (dose: 150.0 mg/kg/injection, schedule: Q01DX009 (ip), vehicle: Klucel (hydroxypropylcellulose) (HPC)): 6 of 6

Compound: C=C1C(=O)OC2CC3(C)OC3CC/C(C)=C/C(OC(C)=O)C12 (configuration not stated)
- survivor count (dose: 100.0 mg/kg/injection, schedule: Q01DX005 (ip), vehicle: saline with Tween-80): 2 of 5
- survivor count [1]: 0 of 5

Compound: CCCCOc1cccc2c(NCCCCCCCCNc3c4ccccc4nc4c(OCCCC)cccc34)c3ccccc3nc12
- survivor count (dose: 20.0 mg/kg/injection, schedule: Q## X009 (ip), vehicle: lactic acid): 1 of 6

Compound: O=C(C[N+](=O)[O-])OCc1ccccc1
- survivor count (dose: 200.0 mg/kg/injection, schedule: Q01DX009 (ip), vehicle: other): 3 of 6

Compound: COC(=O)/C(C#N)=C(\C)CCC=C(C)C
- survivor count [3]: 3 of 6
- survivor count [4]: 0 of 6
- survivor count [5]: 0 of 6
